Laboratory results published in doi:10.1101/264788.
These are yes or no findings as the source states them, for the method shown. In cells and extracts the contact can be indirect. A yes stands for co-enrichment or nearness to the bait. Other partners may have been found.

Chains of the proteins cited; added tags and fusions are not shown. Residues count along the entry.
UniProt P02545, residues 1-646: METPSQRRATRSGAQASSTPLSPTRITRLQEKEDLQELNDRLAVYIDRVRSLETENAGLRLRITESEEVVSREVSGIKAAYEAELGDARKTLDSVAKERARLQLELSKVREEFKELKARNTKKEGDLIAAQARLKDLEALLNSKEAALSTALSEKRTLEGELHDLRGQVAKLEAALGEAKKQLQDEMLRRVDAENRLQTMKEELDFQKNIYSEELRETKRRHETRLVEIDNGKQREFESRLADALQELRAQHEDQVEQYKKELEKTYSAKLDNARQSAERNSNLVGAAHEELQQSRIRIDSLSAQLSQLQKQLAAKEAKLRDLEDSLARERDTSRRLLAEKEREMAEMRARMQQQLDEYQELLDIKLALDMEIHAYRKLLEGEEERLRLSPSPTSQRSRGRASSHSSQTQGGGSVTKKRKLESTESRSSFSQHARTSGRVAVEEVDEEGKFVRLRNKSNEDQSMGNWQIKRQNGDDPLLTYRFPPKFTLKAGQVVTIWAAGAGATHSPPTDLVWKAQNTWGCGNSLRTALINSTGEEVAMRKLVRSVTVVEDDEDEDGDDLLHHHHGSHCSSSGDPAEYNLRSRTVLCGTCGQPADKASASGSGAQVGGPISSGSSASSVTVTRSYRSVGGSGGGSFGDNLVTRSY
UniProt P49336: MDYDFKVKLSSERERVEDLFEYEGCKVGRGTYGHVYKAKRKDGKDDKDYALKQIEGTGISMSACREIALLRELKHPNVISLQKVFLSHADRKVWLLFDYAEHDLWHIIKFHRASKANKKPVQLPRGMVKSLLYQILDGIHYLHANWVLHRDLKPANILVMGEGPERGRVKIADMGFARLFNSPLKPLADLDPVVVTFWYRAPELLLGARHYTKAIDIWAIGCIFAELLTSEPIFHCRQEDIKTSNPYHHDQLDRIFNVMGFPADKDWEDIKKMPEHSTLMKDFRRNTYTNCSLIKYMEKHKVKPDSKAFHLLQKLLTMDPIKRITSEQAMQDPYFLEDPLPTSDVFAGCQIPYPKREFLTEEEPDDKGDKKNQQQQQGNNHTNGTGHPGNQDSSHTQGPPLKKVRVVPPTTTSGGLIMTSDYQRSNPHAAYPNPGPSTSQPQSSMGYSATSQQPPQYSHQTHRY
UniProt Q9UHV7: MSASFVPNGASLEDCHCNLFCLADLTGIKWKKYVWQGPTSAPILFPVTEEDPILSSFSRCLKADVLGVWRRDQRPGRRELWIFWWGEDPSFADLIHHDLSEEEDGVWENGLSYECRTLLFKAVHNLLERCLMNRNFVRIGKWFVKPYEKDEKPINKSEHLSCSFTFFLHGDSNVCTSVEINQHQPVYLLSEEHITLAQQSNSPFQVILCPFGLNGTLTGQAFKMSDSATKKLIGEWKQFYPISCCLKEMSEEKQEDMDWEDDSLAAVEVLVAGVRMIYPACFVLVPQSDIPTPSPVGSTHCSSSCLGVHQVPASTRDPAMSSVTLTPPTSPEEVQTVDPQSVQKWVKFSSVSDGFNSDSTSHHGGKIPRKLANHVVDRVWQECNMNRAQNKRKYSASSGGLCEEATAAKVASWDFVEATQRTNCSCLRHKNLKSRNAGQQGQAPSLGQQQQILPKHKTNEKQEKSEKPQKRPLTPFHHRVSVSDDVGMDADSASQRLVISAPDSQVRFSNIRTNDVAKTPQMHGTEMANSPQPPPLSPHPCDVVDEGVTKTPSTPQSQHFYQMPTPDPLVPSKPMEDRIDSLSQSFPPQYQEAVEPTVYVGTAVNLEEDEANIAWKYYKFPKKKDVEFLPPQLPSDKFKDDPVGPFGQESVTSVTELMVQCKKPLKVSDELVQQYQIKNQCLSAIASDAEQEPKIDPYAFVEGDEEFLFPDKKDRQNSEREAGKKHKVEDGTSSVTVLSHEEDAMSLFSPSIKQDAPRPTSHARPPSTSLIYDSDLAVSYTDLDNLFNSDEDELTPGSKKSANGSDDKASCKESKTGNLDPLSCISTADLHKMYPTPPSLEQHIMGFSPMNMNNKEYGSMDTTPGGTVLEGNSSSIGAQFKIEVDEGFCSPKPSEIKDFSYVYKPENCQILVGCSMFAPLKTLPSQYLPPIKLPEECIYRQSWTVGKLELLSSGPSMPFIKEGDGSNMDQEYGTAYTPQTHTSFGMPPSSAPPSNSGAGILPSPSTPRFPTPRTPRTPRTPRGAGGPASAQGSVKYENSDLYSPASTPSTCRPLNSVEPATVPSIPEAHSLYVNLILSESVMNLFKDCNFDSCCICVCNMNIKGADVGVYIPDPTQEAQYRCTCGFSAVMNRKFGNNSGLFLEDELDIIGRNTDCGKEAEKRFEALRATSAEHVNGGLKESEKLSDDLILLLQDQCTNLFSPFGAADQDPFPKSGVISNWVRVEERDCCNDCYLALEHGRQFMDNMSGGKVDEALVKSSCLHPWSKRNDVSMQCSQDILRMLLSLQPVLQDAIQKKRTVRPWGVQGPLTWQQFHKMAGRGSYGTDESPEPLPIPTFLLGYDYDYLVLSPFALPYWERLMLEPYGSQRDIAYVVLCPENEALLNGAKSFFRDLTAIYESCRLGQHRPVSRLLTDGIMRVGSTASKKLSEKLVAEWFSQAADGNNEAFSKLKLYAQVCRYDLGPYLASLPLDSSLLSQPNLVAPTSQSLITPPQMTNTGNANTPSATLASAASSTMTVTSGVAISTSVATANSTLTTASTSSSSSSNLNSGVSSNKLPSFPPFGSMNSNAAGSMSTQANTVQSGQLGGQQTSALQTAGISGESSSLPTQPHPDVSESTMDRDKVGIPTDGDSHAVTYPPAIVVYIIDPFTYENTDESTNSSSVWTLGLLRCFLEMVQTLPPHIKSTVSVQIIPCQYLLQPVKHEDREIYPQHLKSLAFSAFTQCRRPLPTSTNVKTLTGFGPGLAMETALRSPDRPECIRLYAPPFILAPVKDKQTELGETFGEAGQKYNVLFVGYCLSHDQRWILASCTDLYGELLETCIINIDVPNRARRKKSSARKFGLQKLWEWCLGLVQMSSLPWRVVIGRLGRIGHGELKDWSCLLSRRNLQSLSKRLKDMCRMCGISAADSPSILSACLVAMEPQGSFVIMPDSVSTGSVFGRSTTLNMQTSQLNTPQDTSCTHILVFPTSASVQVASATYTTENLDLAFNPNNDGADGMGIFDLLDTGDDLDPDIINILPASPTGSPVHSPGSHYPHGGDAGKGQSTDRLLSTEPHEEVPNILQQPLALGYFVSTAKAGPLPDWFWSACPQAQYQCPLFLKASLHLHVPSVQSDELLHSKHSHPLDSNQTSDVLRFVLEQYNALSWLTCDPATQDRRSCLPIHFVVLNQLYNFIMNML
UniProt P12270: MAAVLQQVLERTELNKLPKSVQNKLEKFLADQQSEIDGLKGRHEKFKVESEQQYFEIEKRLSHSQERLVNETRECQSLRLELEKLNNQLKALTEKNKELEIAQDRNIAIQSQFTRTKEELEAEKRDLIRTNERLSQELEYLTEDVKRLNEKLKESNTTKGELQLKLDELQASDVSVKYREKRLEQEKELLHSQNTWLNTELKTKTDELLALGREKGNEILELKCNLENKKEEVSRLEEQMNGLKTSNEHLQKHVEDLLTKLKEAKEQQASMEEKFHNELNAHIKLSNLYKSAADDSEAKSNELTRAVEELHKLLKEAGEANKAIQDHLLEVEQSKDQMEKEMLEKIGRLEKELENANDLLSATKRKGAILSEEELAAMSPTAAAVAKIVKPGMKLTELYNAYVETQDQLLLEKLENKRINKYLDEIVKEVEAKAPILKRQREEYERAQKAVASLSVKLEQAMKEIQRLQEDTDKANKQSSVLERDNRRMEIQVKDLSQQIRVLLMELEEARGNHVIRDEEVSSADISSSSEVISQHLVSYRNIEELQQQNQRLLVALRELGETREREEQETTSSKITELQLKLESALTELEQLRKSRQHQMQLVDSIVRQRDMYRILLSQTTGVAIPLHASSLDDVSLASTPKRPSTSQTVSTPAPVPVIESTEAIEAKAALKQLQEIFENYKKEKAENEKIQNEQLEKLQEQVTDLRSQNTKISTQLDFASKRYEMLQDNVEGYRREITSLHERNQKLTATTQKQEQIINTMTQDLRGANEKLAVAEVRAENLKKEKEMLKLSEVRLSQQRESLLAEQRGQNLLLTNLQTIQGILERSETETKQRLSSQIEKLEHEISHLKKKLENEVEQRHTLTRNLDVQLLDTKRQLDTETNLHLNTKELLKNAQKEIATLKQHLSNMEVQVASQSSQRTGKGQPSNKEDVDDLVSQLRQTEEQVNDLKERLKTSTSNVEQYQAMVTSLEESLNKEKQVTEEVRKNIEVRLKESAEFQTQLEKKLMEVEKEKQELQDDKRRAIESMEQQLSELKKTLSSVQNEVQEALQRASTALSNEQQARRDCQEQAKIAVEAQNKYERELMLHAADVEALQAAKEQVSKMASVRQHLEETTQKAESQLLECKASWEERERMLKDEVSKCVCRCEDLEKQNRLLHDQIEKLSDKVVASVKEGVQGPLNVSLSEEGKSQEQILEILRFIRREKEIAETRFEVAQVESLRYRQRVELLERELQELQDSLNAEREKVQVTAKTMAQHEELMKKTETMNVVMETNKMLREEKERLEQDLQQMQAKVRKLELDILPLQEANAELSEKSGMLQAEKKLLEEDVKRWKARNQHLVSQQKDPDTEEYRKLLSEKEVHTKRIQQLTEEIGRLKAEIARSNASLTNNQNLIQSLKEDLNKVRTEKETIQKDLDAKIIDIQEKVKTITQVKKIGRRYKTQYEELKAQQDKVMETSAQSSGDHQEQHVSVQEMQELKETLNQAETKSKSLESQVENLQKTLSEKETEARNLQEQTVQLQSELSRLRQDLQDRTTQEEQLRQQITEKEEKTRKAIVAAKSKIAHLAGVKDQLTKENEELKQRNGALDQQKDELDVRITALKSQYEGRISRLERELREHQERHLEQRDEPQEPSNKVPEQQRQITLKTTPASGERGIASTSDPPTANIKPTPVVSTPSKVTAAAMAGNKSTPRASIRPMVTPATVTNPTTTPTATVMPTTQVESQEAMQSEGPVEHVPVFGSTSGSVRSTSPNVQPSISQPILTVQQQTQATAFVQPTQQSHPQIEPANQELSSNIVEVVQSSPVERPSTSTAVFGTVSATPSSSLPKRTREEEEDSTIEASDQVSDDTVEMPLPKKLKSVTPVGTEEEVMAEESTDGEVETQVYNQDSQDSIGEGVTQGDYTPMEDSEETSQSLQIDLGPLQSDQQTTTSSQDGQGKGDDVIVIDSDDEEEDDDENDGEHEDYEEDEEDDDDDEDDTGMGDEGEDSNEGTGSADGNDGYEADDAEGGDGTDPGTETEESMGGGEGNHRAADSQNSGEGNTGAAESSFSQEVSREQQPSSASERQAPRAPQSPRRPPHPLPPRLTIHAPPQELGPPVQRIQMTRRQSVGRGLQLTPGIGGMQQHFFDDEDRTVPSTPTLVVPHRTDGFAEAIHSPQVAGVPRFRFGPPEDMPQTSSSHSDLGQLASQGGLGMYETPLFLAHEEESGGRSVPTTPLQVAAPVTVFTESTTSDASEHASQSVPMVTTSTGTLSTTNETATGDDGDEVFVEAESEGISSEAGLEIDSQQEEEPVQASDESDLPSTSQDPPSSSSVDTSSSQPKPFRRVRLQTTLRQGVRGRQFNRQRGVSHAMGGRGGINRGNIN

Tests used:
[1] = biological target: Prelamin-A/C, MAC-tagged (human) (UniProt P02545); assay: proximity labelling
[2] = biological target: Prelamin-A/C, MAC-tagged (human) (UniProt P02545); assay: affinity purification with mass spectrometry
[3] = biological target: cyclin-dependent kinase (CDK) 8, MAC-tagged (UniProt P49336); assay: affinity purification with mass spectrometry + proximity labelling
[4] = biological target: mediator of RNA polymerase II transcription subunit 13, MAC-tagged (UniProt Q9UHV7); assay: as above

Molecule: nucleoprotein TPR (from UniProt P12270 1-2363)
- binding [1]: binds
- binding [2]: binds

Molecule: importin subunit alpha IMA7 (from UniProt O60684 1-536)
- binding [1]: binds
- binding [2]: binds

Molecule: importin subunit alpha IMA5 (from UniProt P52294 1-538)
- binding [1]: binds
- binding [2]: binds

Molecule: lamin-B receptor (from UniProt Q14739 1-615)
- binding [1]: binds
- binding [2]: binds

B1: MED27 (protein, UniProt Q6P2C8 1-311)
chain: MADVINVSVNLEAFSQAISAIQALRSSVSRVFDCLKDGMRNKETLEGREKAFIAHFQDNLHSVNRDLNELERLSNLVGKPSENHPLHNSGLLSLDPVQDKTPLYSQLLQAYKWSNKLQYHAGLASGLLNQQSLKRSANQMGVSAKRRPKAQPTTLVLPPQYVDDVISRIDRMFPEMSIHLSRPNGTSAMLLVTLGKVLKVIVVMRSLFIDRTIVKGYNENVYTEDGKLDIWSKSNYQVFQKVTDHATTALLHYQLPQMPDVVVRSFMTWLRSYIKLFQAPCQRCGKFLQDGLPPTWRDFRTLEAFHDTCRQ
- binding [3]: binds
- binding [4]: binds

B2: lamin-B2 (protein, UniProt Q03252 1-620)
chain: MSPPSPGRRREQRRPRAAATMATPLPGRAGGPATPLSPTRLSRLQEKEELRELNDRLAHYIDRVRALELENDRLLLKISEKEEVTTREVSGIKALYESELADARRVLDETARERARLQIEIGKLRAELDEVNKSAKKREGELTVAQGRVKDLESLFHRSEVELAAALSDKRGLESDVAELRAQLAKAEDGHAVAKKQLEKETLMRVDLENRCQSLQEELDFRKSVFEEEVRETRRRHERRLVEVDSSRQQEYDFKMAQALEELRSQHDEQVRLYKLELEQTYQAKLDSAKLSSDQNDKAASAAREELKEARMRLESLSYQLSGLQKQASAAEDRIRELEEAMAGERDKFRKMLDAKEQEMTEMRDVMQQQLAEYQELLDVKLALDMEINAYRKLLEGEEERLKLSPSPSSRVTVSRATSSSSGSLSATGRLGRSKRKRLEVEEPLGSGPSVLGTGTGGSGGFHLAQQASASGSVSIEEIDLEGKFVQLKNNSDKDQSLGNWRIKRQVLEGEEIAYKFTPKYILRAGQMVTVWAAGAGVAHSPPSTLVWKGQSSWGTGESFRTVLVNADGEEVAMRTVKKSSVMRENENGEEEEEEAEFGEEDLFHQQGDPRTTSRGCYVM
- binding [1]: binds
- binding [2]: binds

B3: lamina-associated polypeptide 2A (protein, UniProt P42166)
chain: MPEFLEDPSVLTKDKLKSELVANNVTLPAGEQRKDVYVQLYLQHLTARNRPPLPAGTNSKGPPDFSSDEEREPTPVLGSGAAAAGRSRAAVGRKATKKTDKPRQEDKDDLDVTELTNEDLLDQLVKYGVNPGPIVGTTRKLYEKKLLKLREQGTESRSSTPLPTISSSAENTRQNGSNDSDRYSDNEEGKKKEHKKVKSTRDIVPFSELGTTPSGGGFFQGISFPEISTRPPLGSTELQAAKKVHTSKGDLPREPLVATNLPGRGQLQKLASERNLFISCKSSHDRCLEKSSSSSSQPEHSAMLVSTAASPSLIKETTTGYYKDIVENICGREKSGIQPLCPERSHISDQSPLSSKRKALEESESSQLISPPLAQAIRDYVNSLLVQGGVGSLPGTSNSMPPLDVENIQKRIDQSKFQETEFLSPPRKVPRLSEKSVEERDSGSFVAFQNIPGSELMSSFAKTVVSHSLTTLGLEVAKQSQHDKIDASELSFPFHESILKVIEEEWQQVDRQLPSLACKYPVSSREATQILSVPKVDDEILGFISEATPLGGIQAASTESCNQQLDLALCRAYEAAASALQIATHTAFVAKAMQADISQAAQILSSDPSRTHQALGILSKTYDAASYICEAAFDEVKMAAHTMGNATVGRRYLWLKDCKINLASKNKLASTPFKGGTLFGGEVCKVIKKRGNKH
- binding [1]: binds
- binding [2]: binds

B4: lamina-associated polypeptide 2B (protein, UniProt P42167)
chain: MPEFLEDPSVLTKDKLKSELVANNVTLPAGEQRKDVYVQLYLQHLTARNRPPLPAGTNSKGPPDFSSDEEREPTPVLGSGAAAAGRSRAAVGRKATKKTDKPRQEDKDDLDVTELTNEDLLDQLVKYGVNPGPIVGTTRKLYEKKLLKLREQGTESRSSTPLPTISSSAENTRQNGSNDSDRYSDNEEDSKIELKLEKREPLKGRAKTPVTLKQRRVEHNQSYSQAGITETEWTSGSSKGGPLQALTRESTRGSRRTPRKRVETSEHFRIDGPVISESTPIAETIMASSNESLVVNRVTGNFKHASPILPITEFSDIPRRAPKKPLTRAEVGEKTEERRVERDILKEMFPYEASTPTGISASCRRPIKGAAGRPLELSDFRMEESFSSKYVPKYVPLADVKSEKTKKGRSIPVWIKILLFVVVAVFLFLVYQAMETNQVNPFSNFLHVDPRKSN
- binding [1]: binds
- binding [2]: binds

B5: inner nuclear membrane protein Man1 (protein, UniProt Q9Y2U8 1-911)
chain: MAAAAASAPQQLSDEELFSQLRRYGLSPGPVTESTRPVYLKKLKKLREEEQQQHRSGGRGNKTRNSNNNNTAAATVAAAGPAAAAAAGMGVRPVSGDLSYLRTPGGLCRISASGPESLLGGPGGASAAPAAGSKVLLGFSSDESDVEASPRDQAGGGGRKDRASLQYRGLKAPPAPLAASEVTNSNSAERRKPHSWWGARRPAGPELQTPPGKDGAVEDEEGEGEDGEERDPETEEPLWASRTVNGSRLVPYSCRENYSDSEEEDDDDVASSRQVLKDDSLSRHRPRRTHSKPLPPLTAKSAGGRLETSVQGGGGLAMNDRAAAAGSLDRSRNLEEAAAAEQGGGCDQVDSSPVPRYRVNAKKLTPLLPPPLTDMDSTLDSSTGSLLKTNNHIGGGAFSVDSPRIYSNSLPPSAAVAASSSLRINHANHTGSNHTYLKNTYNKPKLSEPEEELLQQFKREEVSPTGSFSAHYLSMFLLTAACLFFLILGLTYLGMRGTGVSEDGELSIENPFGETFGKIQESEKTLMMNTLYKLHDRLAQLAGDHECGSSSQRTLSVQEAAAYLKDLGPEYEGIFNTSLQWILENGKDVGIRCVGFGPEEELTNITDVQFLQSTRPLMSFWCRFRRAFVTVTHRLLLLCLGVVMVCVVLRYMKYRWTKEEEETRQMYDMVVKIIDVLRSHNEACQENKDLQPYMPIPHVRDSLIQPHDRKKMKKVWDRAVDFLAANESRVRTETRRIGGADFLVWRWIQPSASCDKILVIPSKVWQGQAFHLDRRNSPPNSLTPCLKIRNMFDPVMEIGDQWHLAIQEAILEKCSDNDGIVHIAVDKNSREGCVYVKCLSPEYAGKAFKALHGSWFDGKLVTVKYLRLDRYHHRFPQALTSNTPLKPSNKHMNSMSHLRLRTGLTNSQGSS
- binding [1]: binds
- binding [2]: binds

B6: NUP50 (protein, UniProt Q9UKX7 1-468)
chain: MAKRNAEKELTDRNWDQEDEAEEVGTFSMASEEVLKNRAIKKAKRRNVGFESDTGGAFKGFKGLVVPSGGGRFSGFGSGAGGKPLEGLSNGNNITSAPPFASAKAAADPKVAFGSLAANGPTTLVDKVSNPKTNGDSQQPSSSGLASSKACVGNAYHKQLAALNCSVRDWIVKHVNTNPLCDLTPIFKDYEKYLANIEQQHGNSGRNSESESNKVAAETQSPSLFGSTKLQQESTFLFHGNKTEDTPDKKMEVASEKKTDPSSLGATSASFNFGKKVDSSVLGSLSSVPLTGFSFSPGNSSLFGKDTTQSKPVSSPFPTKPLEGQAEGDSGECKGGDEEENDEPPKVVVTEVKEEDAFYSKKCKLFYKKDNEFKEKGIGTLHLKPTANQKTQLLVRADTNLGNILLNVLIPPNMPCTRTGKNNVLIVCVPNPPIDEKNATMPVTMLIRVKTSEDADELHKILLEKKDA
- binding [1]: binds
- binding [2]: binds

B7: NUP37 (protein, UniProt Q8NFH4 1-326)
chain: MKQDASRNAAYTVDCEDYVHVVEFNPFENGDSGNLIAYGGNNYVVIGTCTFQEEEADVEGIQYKTLRTFHHGVRVDGIAWSPETRLDSLPPVIKFCTSAADMKIRLFTSDLQDKNEYKVLEGHTDFINGLVFDPKEGQEIASVSDDHTCRIWNLEGVQTAHFVLHSPGMSVCWHPEETFKLMVAEKNGTIRFYDLLAQQAILSLESEQVPLMSAHWCLKNTFKVGAVAGNDWLIWDITRSSYPQNKRPVHMDRACLFRWSTISENLFATTGYPGKMASQFQIHHLGHPQPILMGSVAVGSGLSWHRTLPLCVIGGDHKLLFWVTEV
- binding [1]: binds

B8: NUP43 (protein, UniProt Q8NFH3 1-380)
chain: MEEIYAKFVSQKISKTRWRPLPPGSLQTAETFATGSWDNEENYISLWSIGDFGNLDSDGGFEGDHQLLCDIRHHGDVMDLQFFDQERIVAASSTGCVTVFLHHPNNQTLSVNQQWTTAHYHTGPGSPSYSSAPCTGVVCNNPEIVTVGEDGRINLFRADHKEAVRTIDNADSSTLHAVTFLRTPEILTVNSIGQLKIWDFRQQGNEPSQILSLTGDRVPLHCVDRHPNQQHVVATGGQDGMLSIWDVRQGTMPVSLLKAHEAEMWEVHFHPSNPEHLFTCSEDGSLWHWDASTDVPEKSSLFHQGGRSSTFLSHSISNQANVHQSVISSWLSTDPAKDRIEITSLLPSRSLSVNTLDVLGPCLVCGTDAEAIYVTRHLFS
- binding [1]: binds
